According to PubChem BioAssay AID1439 (NMMLSC, 2008):
Screen size: about 220,000 compounds; about 770 (0.35%) were called active. The shares of active, inactive and inconclusive entries below differ from those in the screen. Cut-off read from the data, not from the text of the source: active = binding response below about 49% or above about 150%; inconclusive = no clear call, values can overlap the other calls; inactive = in between.

Amino acid sequences for entries named in this document (tags omitted).
UniProt P09471, whole entry, looked up: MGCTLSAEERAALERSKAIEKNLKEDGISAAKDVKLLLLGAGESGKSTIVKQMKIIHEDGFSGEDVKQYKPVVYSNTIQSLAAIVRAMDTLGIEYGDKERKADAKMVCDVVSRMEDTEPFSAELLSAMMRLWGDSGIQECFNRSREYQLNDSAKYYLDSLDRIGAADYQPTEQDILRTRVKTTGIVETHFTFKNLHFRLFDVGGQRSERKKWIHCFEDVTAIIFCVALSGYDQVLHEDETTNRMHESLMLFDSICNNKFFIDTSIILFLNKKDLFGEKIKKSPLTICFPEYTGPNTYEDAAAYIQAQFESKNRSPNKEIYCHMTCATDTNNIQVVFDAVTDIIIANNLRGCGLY

target: Guanine nucleotide-binding protein G(o) subunit alpha (Homo sapiens) (UniProt P09471); experiment: RGS7-Galphao binding modulators, primary screen, biochemical, multiplexed bead flow cytometry (AID 1439); conditions: at 10 µM, actives lie on both sides;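 note: fluorescent Galphao held in activated GDP-AlF4 state binding bead-coupled RGS7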

| SMILES | binding response (% of control) |
| --- | --- |
| CCC(c1nnc(SCC(=O)N2CCOCC2)n1C1CCCCC1)N(C)C (stereo not drawn) | inconclusive: 22.1% |
| CC(C)(C)c1csc(Sc2ncccc2[N+](=O)[O-])n1 | inconclusive: 639% |
| CCOC(=O)C1CCCN(C(=O)c2cc(S(=O)(=O)Nc3ccccc3OC)ccc2C)C1 (stereo not drawn) | inconclusive: 426% |
| Cc1ccc(C(=O)N2CCN(c3cnn(C)c(=O)c3Cl)CC2)cc1 | inactive: 100% |
| O=S(=O)(N/N=C/c1ccc(F)cc1)c1ccccc1 | inactive: 102% |
| Cc1ccc(S(=O)(=O)n2ccc(=O)[nH]2)cc1 | inactive: 108% |
| CC(C)c1ccc(NC(=O)CNCC(c2ccccc2)N(C)C)cc1 (stereo not drawn) | inconclusive: 94% |
| Cn1ncc(C(=O)N=S(C)(=O)c2ccccc2)c1[N+](=O)[O-] (stereo not drawn) | inconclusive: 170% |
| O=C(O)c1ccc(N2C(=O)CC(SC(=NCc3ccc4c(c3)OCO4)Nc3ccccc3)C2=O)cc1 (stereo not drawn) | inconclusive: 84.8% |
| COc1cc2oc(=O)ccc2c(OC)c1CC(O)C(C)(C)O (stereo not drawn) | inconclusive: 115% |
| COc1cc(CNC2CCCCC2OC)cc(OC)c1 (stereo not drawn) | inconclusive: 84.1% |
| O=C(Cn1c(C(F)(F)F)nc2ccccc21)Nc1ccccc1N1CCOCC1 | active: 44.5% |
| CC(=O)NNC(=O)c1[nH]c2ccc(Cl)cc2c1-c1ccccc1 | inconclusive: 111% |
| O=C(c1cccc(S(=O)(=O)N2CCCCCC2)c1)N1CCN(c2ccccc2)CC1 | inconclusive: 126% |
| CCOC(=O)c1c(-c2ccc(C)cc2)csc1NC(=O)CCN1CC(C)OC(C)C1 (stereo not drawn) | inactive: 101% |
| CC(=O)CCC1C2C(O)C(C(C)C)C(OC(=O)/C=C/c3ccccc3)CC12C (stereo not drawn) | inconclusive: 145% |
| S=C1NC2CCCCC2N1 (stereo not drawn) | inconclusive: 102% |
| Cc1nn(Cc2ccc(C(=O)NN)cc2)c(C)c1Cl | inconclusive: 72.2% |
| Cc1ccc(OCC(=O)N2CCCc3ccccc32)cc1 | inactive: 110% |
| N/C(CCS(=O)(=O)c1ccc(Cl)cc1)=N\OC(=O)c1ccccc1Cl | inconclusive: 105% |

| SMILES | binding response (% of control) |
| --- | --- |
| O=[N+]([O-])c1ccc(N=Nc2c(Cl)cc(O)cc2Cl)cc1 | inconclusive: 214% |
| COc1ccc(-c2[nH]ncc2CN(C)CCN2CCOCC2)cc1F | active: -15.3% |
| COC(=O)CSc1ncnc2c(C)csc12 | inconclusive: -58% |
| Cc1oc(-c2ccccc2)cc1C(=O)NCc1ccncc1 | inconclusive: 146% |
| Cc1c(/C=C(\C#N)c2nn(-c3ccccc3)c(N)c2C#N)c2ccccc2n1Cc1ccc(F)cc1 | inactive: 99.5% |
| OCCC1CN(Cc2cc(F)ccc2-n2cccn2)CCN1C1CCCC1 (stereo not drawn) | inconclusive: 78.4% |
| COc1ccc(/C=C(\C#N)C(=O)OC2CCOC2=O)cc1 (stereo not drawn) | inconclusive: 94.8% |
| CCOC(=O)C1(Cc2cccc(F)c2)CCN(C(=O)c2cnc(C)cn2)CC1 | inactive: 100% |
| Cc1cccc(C(=O)n2cnnc2N)c1 | inactive: 100% |
| O=S1(=O)CC(O)C(N(CCO)C(=S)Nc2ccccc2)C1 (stereo not drawn) | inconclusive: 124% |
| O=C(CO/N=C/c1ccc(OC(F)F)cc1)NC1CCCCCC1 | inconclusive: 89.3% |
| O=C(CNCC1CCCO1)Nc1ccc([N+](=O)[O-])cc1C(=O)Nc1ccccc1F (stereo not drawn) | inconclusive: 88.7% |
| Cc1oc(-c2ccccc2Cl)nc1CSc1nc2c(c(=O)[nH]1)CCC2 | inactive: 98.5% |
| CCOc1ccc(Cn2c(=O)sc3ccccc32)cc1 | inconclusive: 93.2% |
| Cc1cc(/C=N/N2CCN(C)CC2)c(C)n1-c1ccc(Cl)cc1 | inconclusive: 108% |
| COc1ccc(C(=O)Nc2cccc(/C=C(\CCC(=O)O)c3nc4ccccc4s3)c2)cc1 | inconclusive: 38% |
| Cc1ccccc1CNc1ccc(C(CC(N)=O)NC(=O)c2ccc(Br)cc2)cc1[N+](=O)[O-] (stereo not drawn) | inconclusive: 98.1% |
| Cc1ccc(-n2nnnc2SCC(=O)NC(C(=O)O)(c2ccccc2)c2ccccc2)cc1C | inactive: 105% |
| OCC1(CO)COC2(CCCC2)N1 | inconclusive: 93.1% |
| CC(=O)[C@@H]1[C@@H](C)N(Cc2ccccc2)C(=O)N[C@H]1c1cccc(C(F)(F)F)c1 | inconclusive: 83% |

Molecules from the list above that have a COOH group (3):

| SMILES | binding response (% of control) |
| --- | --- |
| O=C(O)c1ccc(N2C(=O)CC(SC(=NCc3ccc4c(c3)OCO4)Nc3ccccc3)C2=O)cc1 (stereo not drawn) | inconclusive: 84.8% |
| COc1ccc(C(=O)Nc2cccc(/C=C(\CCC(=O)O)c3nc4ccccc4s3)c2)cc1 | inconclusive: 38% |
| Cc1ccc(-n2nnnc2SCC(=O)NC(C(=O)O)(c2ccccc2)c2ccccc2)cc1C | inactive: 105% |

(more compounds)

| SMILES | binding response (% of control) |
| --- | --- |
| Cc1csc(NC(=O)c2cc(-c3ccncc3)nc3ccccc23)n1 | inconclusive: 93.8% |
| O=C(CC1CC2CCC1C2)Nc1nc(-c2ccccn2)cs1 (stereo not drawn) | inconclusive: 84% |
| CCOc1ccc(CCNC(=O)Cn2ccc3ccccc3c2=O)cc1OCC | inconclusive: 88.4% |
| COc1ccc(-c2ccc(C(C)=O)cc2)cc1[C@H]1[C@H]2C=CC[C@@H](C)[C@@H]2C(=O)N1Cc1ccccc1 | inconclusive: 111% |
| CCOc1cc(/C=C2\SC(=S)N(N3CCOCC3)C2=O)ccc1O | inconclusive: 70.1% |
| CCOc1ccc(/C(O)=C2/C(=O)C(=O)N(CCN(CC)CC)C2c2cccs2)cc1 (stereo not drawn) | inconclusive: 89.5% |
| O=C(NC(=S)Nc1cc(Cl)ccc1O)c1cccc(Br)c1 | inconclusive: 103% |
| CC(=O)OC1CC(c2cc(C(C)(C)C)c(O)c(C(C)(C)C)c2)=NO1 (stereo not drawn) | inconclusive: 102% |
| CN(C)c1ccc(C(=O)OCC(=O)NCCC2=CCCCC2)cc1 | inconclusive: 83.3% |
| c1ccc(OCc2nnc3n2CCCCC3)cc1 | inconclusive: 113% |
| CCC1=C2CC[C@H]3C(=O)N(CC)C(=O)[C@H]3[C@H]2[C@@]2(Cc3ccccc3)C(=O)N(Cc3ccccc3)C(=O)N2C1=O | inconclusive: 94.2% |
| Cc1ccc(C)c(NS(=O)(=O)c2ccc(OCC(=O)NCc3ccccn3)cc2)c1 | inconclusive: 78.5% |
| Cc1nnc(SCc2nnc(-c3ccccc3Br)o2)s1 | inactive: 99.9% |
| COc1ccc2[nH]cc(/C=N/NS(=O)(=O)c3ccc(C)cc3)c2c1 | inconclusive: 112% |
| CCCCOc1ccc(N=Cc2cccs2)cc1 | inactive: 97.2% |
| COc1ccc(C(C)=O)cc1CSc1nc(C)cc(C)n1 | inactive: 103% |
| O=C(NCc1cccnc1)C1c2ccccc2C(=O)N1C1CCCC1 (stereo not drawn) | inactive: 103% |
| Cc1ccc(C(=O)N/N=C\c2ccccn2)cn1 | inconclusive: 35.6% |
